We go through 1 substance from publication PMC2850320.

Protein sequences, listed by entry. Tags and fused reporters are not part of them. Residues count along the entry.
UniProt P45975, residues 1-152: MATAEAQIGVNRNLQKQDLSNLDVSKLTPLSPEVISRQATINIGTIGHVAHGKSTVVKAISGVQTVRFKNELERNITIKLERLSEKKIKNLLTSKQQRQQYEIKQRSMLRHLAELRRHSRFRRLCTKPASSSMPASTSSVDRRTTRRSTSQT
UniProt Q94517: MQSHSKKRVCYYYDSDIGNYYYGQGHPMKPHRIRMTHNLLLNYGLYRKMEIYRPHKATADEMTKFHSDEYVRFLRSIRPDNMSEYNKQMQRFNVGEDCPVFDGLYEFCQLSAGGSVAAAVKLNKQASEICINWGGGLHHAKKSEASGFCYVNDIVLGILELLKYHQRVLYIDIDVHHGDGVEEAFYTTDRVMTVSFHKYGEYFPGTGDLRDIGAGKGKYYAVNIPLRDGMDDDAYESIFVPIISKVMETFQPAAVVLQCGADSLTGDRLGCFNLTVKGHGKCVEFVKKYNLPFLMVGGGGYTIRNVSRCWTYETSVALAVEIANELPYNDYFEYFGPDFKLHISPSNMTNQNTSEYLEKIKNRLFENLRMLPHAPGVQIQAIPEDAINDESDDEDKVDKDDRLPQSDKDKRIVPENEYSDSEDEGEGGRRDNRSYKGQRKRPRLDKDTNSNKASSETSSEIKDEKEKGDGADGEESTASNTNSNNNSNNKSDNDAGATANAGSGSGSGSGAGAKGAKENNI

No constants are given. Whether binding was seen depends on the method and setting. In cells and extracts the contact can be indirect. Some binding calls cover weakened binding; strength is not graded here.

The target in the experiment is GST-SU(VAR)3–9NT (aa 1–152) (Drosophila) (UniProt P45975). As to the kind of experiment: pull-down; GST-SU(VAR)3–9NT bound to a GSTrap FF column (parallel GST column); Drosophila 0–12 hour embryo nuclear extract loaded; wash 200 mM NaCl, 20 mM Tris-HCl pH 8.0, 1 mM EDTA, 0.5% Nonidet P-40; step elution 250, 500, 750 mM NaCl and reduced glutathione; Western blot of fractions; only the target purified.

For the substance “RPD3 (endogenous, Drosophila embryo nuclear extract) (from UniProt Q94517 1-521) (enzyme)”, the binding entry is “binds”.
